The list shows a part of the results. Many values rest on one well or one pass, so single values are uncertain.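 Imaging used 1,536-well plates; nuclei positive for cleaved PARP by antibody were divided by total DNA-stained nuclei to yield the apoptosis fraction. Doses for screening kept most cells viable, and cell lines differ markedly in resting and induced cleaved-PARP levels.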

In the first assay the test system is WM3526. The assay is described as follows: cleaved PARP positive nuclei fraction relative to DMSO control; melanoma cells; higher = more apoptosis. The following applies: library dose: low library concentration; 72 h.
On to `N#CC[C@H](C1CCCC1)n1cc(-c2ncnc3[nH]ccc23)cn1` [ruxolitinib] + CC(=O)c1c(C)c2cnc(Nc3ccc(N4CCNCC4)cn3)nc2n(C2CCCC2)c1=O [palbociclib] (first compound 1 µM, partner dose 0.04 µM), for which the “cleaved PARP positive nuclei fraction” value amounted to 123%. Consider `O=C(Nc1cc(C(F)(F)F)cc(C(F)(F)F)c1)c1cc(Cl)ccc1O` + Nc1nc(F)nc2c1ncn2[C@@H]1O[C@H](CO)[C@@H](O)[C@@H]1O [fludarabine] (first compound 0.016 µM, partner dose 0.2 µM), for which the “cleaved PARP positive nuclei fraction” value amounted to 395%. On the same count and under the same terms, the same measure for `O=C(Nc1cc(C(F)(F)F)cc(C(F)(F)F)c1)c1cc(Cl)ccc1O` + O=C(/C=C/c1cccnc1)NCCCCC1CCN(C(=O)c2ccccc2)CC1 [FK866] (first compound 0.016 µM, partner dose 0.01 µM): 194%.

The next assay deals with WM3619. Described as above. The following applies: library dose: low library concentration; 72 h.
As for `N#CC[C@H](C1CCCC1)n1cc(-c2ncnc3[nH]ccc23)cn1` [ruxolitinib] + C=CCNC1=C2C[C@@H](C)C[C@H](OC)[C@H](O)[C@@H](C)/C=C(\C)[C@H](OC(N)=O)[C@@H](OC)/C=C\C=C(/C)C(=O)NC(=CC1=O)C2=O [Tanespimycin] (first compound 1 µM, partner dose 0.002 µM), the “cleaved PARP positive nuclei fraction” value came to 140%. Still for that read-out and setting: the same measure for `Cc1cn(-c2cc(NC(=O)c3ccc(C)c(Nc4nccc(-c5cccnc5)n4)c3)cc(C(F)(F)F)c2)cn1` [nilotinib] + COCC[n+]1c2c(n(Cc3cnccn3)c1C)C(=O)c1ccccc1C2=O [YM155] (first compound 0.2 µM, partner dose 0.0004 µM): 87.4%; for `Cc1cn(-c2cc(NC(=O)c3ccc(C)c(Nc4nccc(-c5cccnc5)n4)c3)cc(C(F)(F)F)c2)cn1` [nilotinib] + CCN(CC)CCNC(=O)c1c(C)[nH]c(/C=C2\C(=O)Nc3ccc(F)cc32)c1C [sunitinib] (first compound 0.2 µM, partner dose 0.4 µM): 66.8%; for `COc1cc([C@@H]2c3cc4c(cc3[C@@H](O[C@@H]3O[C@@H]5CO[C@@H](C)O[C@H]5[C@H](O)[C@H]3O)[C@H]3COC(=O)[C@H]23)OCO4)cc(OC)c1O` [etoposide] + CNC(=O)c1cc(Oc2ccc(NC(=O)Nc3ccc(Cl)c(C(F)(F)F)c3)cc2)ccn1 [sorafenib] (first compound 0.02 µM, partner dose 0.4 µM): 91.8%. Same read-out and setting: the same measure for `Cc1cc(Nc2cc(N3CCN(C)CC3)nc(Sc3ccc(NC(=O)C4CC4)cc3)n2)n[nH]1` [Tozasertib] + CN1CCN(c2ccc3nc(-c4c(N)c5c(F)cccc5[nH]c4=O)[nH]c3c2)CC1 [Dovitinib] (first compound 0.006 µM, partner dose 0.1 µM): 109%; for `COc1cc([C@@H]2c3cc4c(cc3[C@@H](O[C@@H]3O[C@@H]5CO[C@@H](C)O[C@H]5[C@H](O)[C@H]3O)[C@H]3COC(=O)[C@H]23)OCO4)cc(OC)c1O` [etoposide] + Nc1cccc2c1CN(C1CCC(=O)NC1=O)C2=O [lenalidomide] (first compound 0.02 µM, partner dose 1 µM): 134%; for `CC[C@]1(O)C[C@H]2CN(CCc3c([nH]c4ccccc34)[C@@](C(=O)OC)(c3cc4c(cc3OC)N(C=O)[C@H]3[C@@](O)(C(=O)OC)[C@H](OC(C)=O)[C@]5(CC)C=CCN6CC[C@]43[C@@H]65)C2)C1` [vincristine] + Cc1cn(-c2cc(NC(=O)c3ccc(C)c(Nc4nccc(-c5cccnc5)n4)c3)cc(C(F)(F)F)c2)cn1 [nilotinib] (first compound 0.0001 µM, partner dose 0.2 µM): 228%. With `N#CC[C@H](C1CCCC1)n1cc(-c2ncnc3[nH]ccc23)cn1` [ruxolitinib] + Nc1cccc2c1CN(C1CCC(=O)NC1=O)C2=O [lenalidomide] (first compound 1 µM, partner dose 1 µM), the “cleaved PARP positive nuclei fraction” value was found to be 75%.

For the compound `N#CC[C@H](C1CCCC1)n1cc(-c2ncnc3[nH]ccc23)cn1` [ruxolitinib] + COCC[n+]1c2c(n(Cc3cnccn3)c1C)C(=O)c1ccccc1C2=O [YM155] (first compound 1 µM, partner dose 0.0004 µM), the “cleaved PARP positive nuclei fraction” value is 77%.

Turning to `CCCCCCCCCCCCCCCCCCOP(=O)([O-])OC1CC[N+](C)(C)CC1` [Perifosine] + O=C(O)[C@@H]1[O][Sb](=[O])([O][Sb]2(=[O])[O][C@H]([C@H](O)CO)[C@H](O)[C@H](C(=O)O)[O]2)[O][C@H]([C@H](O)CO)[C@@H]1O [stibogluconate] (first compound 0.4 µM, partner dose 2 µM), the “cleaved PARP positive nuclei fraction” value worked out at 92.5%. Still for that read-out and setting: the same measure for `O=c1[nH]nc(Sc2ncc([N+](=O)[O-])s2)n1-c1ccc2c(c1)OCCO2` + Nc1ncn([C@H]2C[C@H](O)[C@@H](CO)O2)c(=O)n1 [decitabine] (first compound 0.2 µM, partner dose 0.1 µM): 191%; for `O=C(Nc1cc(C(F)(F)F)cc(C(F)(F)F)c1)c1cc(Cl)ccc1O` + CC(C)C[C@H](NC(=O)[C@H](Cc1ccccc1)NC(=O)c1cnccn1)B(O)O [Bortezomib] (first compound 0.016 µM, partner dose 0.001 µM): 186%. Still for that read-out and setting: in the case of `N#CC[C@H](C1CCCC1)n1cc(-c2ncnc3[nH]ccc23)cn1` [ruxolitinib] + C[C@]1(O)C[C@@H](c2nc(-c3ccc4ccc(-c5ccccc5)nc4c3)c3c(N)nccn32)C1 [OSI906] (first compound 1 µM, partner dose 0.4 µM) it was 87.5%; in that of `Cc1cc(Nc2cc(N3CCN(C)CC3)nc(Sc3ccc(NC(=O)C4CC4)cc3)n2)n[nH]1` [Tozasertib] + CNC(=O)c1cc(Oc2ccc(NC(=O)Nc3ccc(Cl)c(C(F)(F)F)c3)cc2)ccn1 [sorafenib] (first compound 0.006 µM, partner dose 0.4 µM), 115%; in that of `Cc1ccc(Nc2nccc(N(C)c3ccc4c(C)n(C)nc4c3)n2)cc1S(N)(=O)=O` [Pazopanib] + CN1CCN(c2ccc3nc(-c4c(N)c5c(F)cccc5[nH]c4=O)[nH]c3c2)CC1 [Dovitinib] (first compound 0.4 µM, partner dose 0.1 µM), 215%.

As for `Cc1cn(-c2cc(NC(=O)c3ccc(C)c(Nc4nccc(-c5cccnc5)n4)c3)cc(C(F)(F)F)c2)cn1` [nilotinib] + Cn1c(=O)n(-c2ccc(C(C)(C)C#N)cc2)c2c3cc(-c4cnc5ccccc5c4)ccc3ncc21 [NVP-BEZ235] (first compound 0.2 µM, partner dose 0.004 µM), the “cleaved PARP positive nuclei fraction” value was 98.6%. Still for that read-out and setting: in the case of `O=c1[nH]nc(Sc2ncc([N+](=O)[O-])s2)n1-c1ccc2c(c1)OCCO2` + C=CCNC1=C2C[C@@H](C)C[C@H](OC)[C@H](O)[C@@H](C)/C=C(\C)[C@H](OC(N)=O)[C@@H](OC)/C=C\C=C(/C)C(=O)NC(=CC1=O)C2=O [Tanespimycin] (first compound 0.2 µM, partner dose 0.002 µM) it was 96.1%; in that of `CCCCCCCCCCCCCCCCCCOP(=O)([O-])OC1CC[N+](C)(C)CC1` [Perifosine] + C#Cc1cccc(Nc2ncnc3cc(OCCOC)c(OCCOC)cc23)c1 [erlotinib] (first compound 0.4 µM, partner dose 0.8 µM), 105%; in that of `COc1cc([C@@H]2c3cc4c(cc3[C@@H](O[C@@H]3O[C@@H]5CO[C@@H](C)O[C@H]5[C@H](O)[C@H]3O)[C@H]3COC(=O)[C@H]23)OCO4)cc(OC)c1O` [etoposide] + C[C@]1(O)C[C@@H](c2nc(-c3ccc4ccc(-c5ccccc5)nc4c3)c3c(N)nccn32)C1 [OSI906] (first compound 0.02 µM, partner dose 0.4 µM), 103%.

With `CCCCCCCCCCCCCCCCCCOP(=O)([O-])OC1CC[N+](C)(C)CC1` [Perifosine] + C[C@@H](N)c1ccc(C(=O)Nc2ccnc3[nH]ccc23)cc1 [RKI983] (first compound 0.4 µM, partner dose 0.4 µM), the “cleaved PARP positive nuclei fraction” value worked out at 106%. Still for that read-out and setting: in the case of `CCCCCCCCCCCCCCCCCCOP(=O)([O-])OC1CC[N+](C)(C)CC1` [Perifosine] + CCCS(=O)(=O)Nc1ccc(F)c(C(=O)c2c[nH]c3ncc(Cl)cc23)c1F [PLX4720] (first compound 0.4 µM, partner dose 0.08 µM) it was 151%; in that of `O=C(/C=C/c1cccnc1)NCCCCC1CCN(C(=O)c2ccccc2)CC1` + Cc1cc(Nc2cc(N3CCN(C)CC3)nc(/C=C/c3ccccc3)n2)n[nH]1 [ENMD2076] (first compound 0.01 µM, partner dose 0.04 µM), 87.6%; in that of `O=C(/C=C/c1cccnc1)NCCCCC1CCN(C(=O)c2ccccc2)CC1` + Clc1ccc(Nc2nnc(Cc3ccncc3)c3ccccc23)cc1 [vatalanib] (first compound 0.01 µM, partner dose 2 µM), 113%. On to `Cc1cc(Nc2cc(N3CCN(C)CC3)nc(Sc3ccc(NC(=O)C4CC4)cc3)n2)n[nH]1` [Tozasertib] + CC1(C)CCC(c2ccc(Cl)cc2)=C(CN2CCN(c3ccc(C(=O)NS(=O)(=O)c4ccc(N[C@H](CCN5CCOCC5)CSc5ccccc5)c(S(=O)(=O)C(F)(F)F)c4)cc3)CC2)C1 [ABT263] (first compound 0.006 µM, partner dose 0.4 µM), for which the “cleaved PARP positive nuclei fraction” value came out at 97.6%. The same measure, in the same setting: the same measure for `CCCCCCCCCCCCCCCCCCOP(=O)([O-])OC1CC[N+](C)(C)CC1` [Perifosine] + NC(=O)c1ccc(N(C(N)=O)c2c(F)cccc2F)nc1-c1ccc(F)cc1F [VX702] (first compound 0.4 µM, partner dose 0.4 µM): 101%.
